From PMC7606512 come the findings set out here.

Results are given in words; binding and its absence hold for the method and conditions named. In cells and extracts the contact can be indirect. Some binding calls cover weakened binding; strength is not graded here.

In this experiment the target is MITA, endogenous in THP-1 cells (human (endogenous in THP-1)), Q86WV6. Nature of the experiment: co-IP; endogenous proteins; THP-1 cells (also stably shCon or shRNF115#2) and MLFs (Rnf115+/+ and Rnf115−/−) infected with HSV-1; immunoprecipitated with anti-MITA (Fig. 7f); immunoblot. Conditions: remark: other sources report otherwise. On the technique in general: Immunoblotting shows a protein as a band on a membrane.

B1: TBK1, endogenous in THP-1 cells, Q9UHD2 1-729 (enzyme)
chain: MQSTSNHLWLLSDILGQGATANVFRGRHKKTGDLFAIKVFNNISFLRPVDVQMREFEVLKKLNHKNIVKLFAIEEETTTRHKVLIMEFCPCGSLYTVLEEPSNAYGLPESEFLIVLRDVVGGMNHLRENGIVHRDIKPGNIMRVIGEDGQSVYKLTDFGAARELEDDEQFVSLYGTEEYLHPDMYERAVLRKDHQKKYGATVDLWSIGVTFYHAATGSLPFRPFEGPRRNKEVMYKIITGKPSGAISGVQKAENGPIDWSGDMPVSCSLSRGLQVLLTPVLANILEADQEKCWGFDQFFAETSDILHRMVIHVFSLQQMTAHKIYIHSYNTATIFHELVYKQTKIISSNQELIYEGRRLVLEPGRLAQHFPKTTEENPIFVVSREPLNTIGLIYEKISLPKVHPRYDLDGDASMAKAITGVVCYACRIASTLLLYQELMRKGIRWLIELIKDDYNETVHKKTEVVITLDFCIRNIEKTVKVYEKLMKINLEAAELGEISDIHTKLLRLSSSQGTIETSLQDIDSRLSPGGSLADAWAHQEGTHPKDRNVEKLQVLLNCMTEIYYQFKKDKAERRLAYNEEQIHKFDKQKLYYHATKAMTHFTDECVKKYEAFLNKSEEWIRKMLHLRKQLLSLTNQCFDIEEEVSKYQEYTNELQETLPQKMFTASSGIKHTMTPIYPSSNTLVEMTLGMKKLKEEMEGVVKELAENNHILERFGSLTMDGGLRNVDCL
In the case of B1, the binding entry was “binds”.
